Reference: paper PMC8457831, “Structural basis for diguanylate cyclase activation by its binding partner in Pseudomonas aeruginosa” (eLife, 2021)

Experiments:
[1] = biological target: GST-SiaD (Pseudomonas aeruginosa); assay: pull-down; 50 ug purified GST-SiaD (or GST) on glutathione magnetic beads, blocked with 5% skim milk, incubated with E. coli lysate holding the Flag-tagged protein, 4°C, six washes, western blot; only the target purified
[2] = biological target: SiaD (full length, sumo-His tag removed) (Pseudomonas aeruginosa); assay: crystal structure; SiaC-SiaD complex (10 mg/ml) with GpCpp 1:5, sitting drops at 18°C, space group C222(1), 2.65 Å; both purified
[3] = biological target: SiaD (full length, sumo-His tag removed) (Pseudomonas aeruginosa); assay: SEC-MALS; SiaC-SiaD complexes (wild type and SiaD motif mutants) at 2 mg/ml, WTC-030S5 column, 20 mM HEPES pH 7.0, 150 mM NaCl, DTT; both purified
[4] = biological target: SiaD^R201A with sumo-His tag (Pseudomonas aeruginosa); assay: SEC; Superdex200, 20 mM HEPES pH 7.0, 300 mM NaCl, 1 mM DTT; SiaD or SiaD R201A incubated with c-di-GMP before complex formation with SiaC; both purified
[5] = biological target: SiaD (full length, sumo-His tag removed) (Pseudomonas aeruginosa); assay: SAXS; synchrotron solution SAXS (SEC-SAXS for SiaD), 20 mM HEPES pH 8.0, 150 mM NaCl, 1 mM DTT, 25°C; 8 mg/ml SiaD or 11 mg/ml SiaC-SiaD complex; both purified
[6] = biological target: SiaD with sumo-His tag (Pseudomonas aeruginosa); assay: condition: only SiaD incubated with c-di-GMP before SiaC; SEC; Superdex200, 20 mM HEPES pH 7.0, 300 mM NaCl, 1 mM DTT; SiaD or SiaD R201A incubated with c-di-GMP before complex formation with SiaC; both purified
[7] = biological target: SiaD with sumo-His tag (Pseudomonas aeruginosa); assay: SEC; Superdex200, 20 mM HEPES pH 7.0, 300 mM NaCl, 1 mM DTT; proteins alone or preformed SiaC-SiaD complexes, with or without excess c-di-GMP added to the complex; mutant complexes also after overnight standing; both purified
[8] = biological target: SiaD^S50A-Q54A (Pseudomonas aeruginosa); assay: as above
[9] = biological target: SiaD^S82A-Q86A (Pseudomonas aeruginosa); assay: as above

Measured: binding

B1: SiaC-Flag (protein, UniProt A0A072ZHB4 1-126)
chain: MSDLHIPGTQSTPAIQGDWQAGRLSMQGDSYPENSYELFGQVIDWVERFLADGQRPLELDLRLLYLNTSSIKAMMDILDLLEEAHQGGRPVSLRWHYDRRNERVAELAEEFREDCSFPFAIQAHDE
binds: [1]

B2: SiaC (sumo-His tag removed) (protein, UniProt A0A072ZHB4 1-126)
chain: MSDLHIPGTQSTPAIQGDWQAGRLSMQGDSYPENSYELFGQVIDWVERFLADGQRPLELDLRLLYLNTSSIKAMMDILDLLEEAHQGGRPVSLRWHYDRRNERVAELAEEFREDCSFPFAIQAHDE
no binding: [6]
not listed: [1]
binds: all other assays above

Results are given in words; binding and its absence hold for the method and conditions named. For part of these data: Binding can be weak; no strength is given. Sequences can lack the tags named with a protein. For part of these data: In cells and extracts the contact can be indirect.
